Source: patent publication US20170015748A1 (NATIONAL RESEARCH COUNCIL OF CANADA, published 2017)
Numbering of substitutions follows the chain as printed. No constants are given. Whether binding was seen depends on the method and setting. Some entries that bind do so weakly or less than the wild type.

Sequences of proteins named here, by UniProt entry; tags and fusion partners are left off. A change or cut given only in a name is not applied to a line headed by its entry.
UniProt P08069: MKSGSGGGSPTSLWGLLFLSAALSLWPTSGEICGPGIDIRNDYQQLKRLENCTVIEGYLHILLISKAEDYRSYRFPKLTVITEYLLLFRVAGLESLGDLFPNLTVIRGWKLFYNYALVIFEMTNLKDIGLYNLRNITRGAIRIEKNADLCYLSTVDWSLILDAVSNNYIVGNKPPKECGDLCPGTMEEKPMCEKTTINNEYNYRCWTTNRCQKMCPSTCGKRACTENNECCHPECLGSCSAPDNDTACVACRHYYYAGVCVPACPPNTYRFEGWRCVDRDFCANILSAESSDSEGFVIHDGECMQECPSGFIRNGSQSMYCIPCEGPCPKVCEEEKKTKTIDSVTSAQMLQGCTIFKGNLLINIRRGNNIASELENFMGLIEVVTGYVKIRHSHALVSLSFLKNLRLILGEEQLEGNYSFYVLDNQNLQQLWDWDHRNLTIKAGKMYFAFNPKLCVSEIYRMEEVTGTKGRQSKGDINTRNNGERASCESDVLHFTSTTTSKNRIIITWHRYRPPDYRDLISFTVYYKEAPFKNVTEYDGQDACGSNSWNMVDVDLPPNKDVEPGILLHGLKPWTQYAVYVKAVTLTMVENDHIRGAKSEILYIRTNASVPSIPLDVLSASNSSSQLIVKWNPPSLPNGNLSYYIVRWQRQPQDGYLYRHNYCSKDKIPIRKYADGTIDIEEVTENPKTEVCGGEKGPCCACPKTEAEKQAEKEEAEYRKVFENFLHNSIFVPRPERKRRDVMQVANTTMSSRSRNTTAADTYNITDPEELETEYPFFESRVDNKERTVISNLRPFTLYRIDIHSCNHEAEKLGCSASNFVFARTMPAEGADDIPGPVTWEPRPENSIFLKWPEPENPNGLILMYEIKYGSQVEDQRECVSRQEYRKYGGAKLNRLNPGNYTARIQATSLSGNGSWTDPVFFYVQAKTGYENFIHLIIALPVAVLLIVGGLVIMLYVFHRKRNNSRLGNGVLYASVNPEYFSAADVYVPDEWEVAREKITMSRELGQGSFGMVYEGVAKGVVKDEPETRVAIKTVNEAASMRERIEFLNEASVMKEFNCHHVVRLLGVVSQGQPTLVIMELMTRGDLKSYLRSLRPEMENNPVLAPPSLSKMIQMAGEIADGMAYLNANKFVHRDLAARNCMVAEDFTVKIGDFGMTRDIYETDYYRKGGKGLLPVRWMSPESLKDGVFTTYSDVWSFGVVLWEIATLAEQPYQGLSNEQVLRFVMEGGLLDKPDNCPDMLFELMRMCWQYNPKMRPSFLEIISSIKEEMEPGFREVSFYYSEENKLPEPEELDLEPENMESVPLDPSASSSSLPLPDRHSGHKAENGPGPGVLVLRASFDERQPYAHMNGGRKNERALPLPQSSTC

B1: IGF1R-5 VHH (VHH)
VHH: QVKLEESGGGLVQAGGSLRLSCAASGRTIDNYAMAWSRQAPGKDREFVATIDWGDGGARYANSVKGRFTISRDNAKGTMYLQMNNLEPEDTAVYSCAMARQSRVNLDVARYDYWGQGTQVTVSS
notes: Llama VHH expressed in E. coli TG1 from vector pSJF2H and purified by IMAC; Monomeric by SEC; also called anti-IGF1R VHH IGF1R-5; wild-type IGF1R-5
B2: IGF1R-5_H3 (VHH)
VHH: QVQLVESGGGLVQPGGSLRLSCAASGRTIDNYAMAWSRQAPGKGLEFVATIDWGDGGTRYANSVKGRFTISRDNSKNTMYLQMNSLRAEDTAVYYCAMARQSRVNLDVARYDYWGQGTLVTVSS
notes: Humanized variant of IGF1R-5, expressed from pSJF2H in E. coli
B3: IGF1R-5_H1 (VHH)
VHH: B2 VHH with Q1E, S37V, F47W, A49S, M79L
notes: as for B2
B4: IGF1R-5_H2 (VHH)
VHH: B2 VHH with S37V, F47W
notes: Humanized variant of IGF1R-5, expressed from pSJF2H in E. coli; also called IGF1R H2
B5: IGF1R-5_H5 (VHH)
VHH: B2 VHH with G44D, L45R, N77G, Y95S
notes: as for B2
B6: IGF1R-5_H6 (VHH)
VHH: B2 VHH with Q1E, G44D, L45R, A49S, M79L
notes: as for B2

molecular target: recombinant extracellular portion of human IGF1R (IGF1R^933-His fragment) (human) (UniProt P08069); test: SPR

binding, binds:
B1, B2, B3, B4, B5, B6

molecular target: recombinant extracellular portion of human IGF1R (IGF1R^933-His fragment) (human) (UniProt P08069); test: SPR (legend of FIG. 3D)

binding, binds:
B1

molecular target: recombinant extracellular portion of human IGF1R (IGF1R^933-His fragment) (human) (UniProt P08069); test: phage ELISA, plates coated with 5 µg/ml IGF1R^933-His

binding, binds:
B1

molecular target: recombinant extracellular portion of human IGF1R (IGF1R^933-His fragment) (human) (UniProt P08069); test: SPR (BIACORE 3000); human IGF1R immobilised on a CM5 chip, VHH injected at 0.1-10 nM (range from the legend; single traces are not labelled)

binding, binds:
B1, B2, B3, B4, B5, B6
